Reference: patent US20250051762A1, “PLATFORM USING DNA-ENCODED SMALL MOLECULE LIBRARIES AND RNA SELECTION TO DESIGN SMALL MOLECULES THAT TARGET RNA” (University of Florida Research Foundation, Incorporated, priority 2021, published 2025)
Some results were stated once for a whole list of compounds, not compound by compound. At least one structure is not confirmed: it was looked up by name or label, or the drawing left a doubt.

Biological target: 5′CAG/3′GCC loop
Experiment: Binding affinity by MST, Cy5-labeled mutated loop RNA
Set-up: species or system human
Conditions: mutated loop 5′CAG/3′GCC
Procedure: Binding affinity measurements: Binding affinities were measured by microscale thermophoresis (MST), performed on a Monolith NT.115 system (NanoTemper Technologies) with Cy5-labeled RNAs. These RNAs include: the 5′GAG/3′CCC SEQ ID NO: 16 loop at pri-miR-27a's Drosha site (Sequence:/5′-Cy5/rCrUrGrArGrGrUrGrArArArCrArUrCrCrCrArG SEQ ID NO: 17; Dharmacon), a related internal loop not selected by 9. 5′CAG/3′GCC SEQ ID NO: 17 loop (Sequence:/5′-Cy5/rCrUrCrArGrGrUrGrArArArCrArUrCrCrGrArG SEQ ID NO: 16; Dharmacon), and an RNA in which the loop is mutated to a base pair (Sequence:/5-Cy5/rCrUrGrArGrGrUrGrArArArCrArUrCrUrCrArG SEQ ID NO: 16; Dharmacon).
Briefly, Cy5-labeled RNA (10 nM) was prepared in 1× Binding Buffer and folded by heating at 60° C. for 5 min and then slowly cooling to room temperature. […]
Samples were incubated for 20 min at room temperature and then loaded into premium capillaries (NanoTemper Tech, Cat #MO-K025). The following parameters were used for MST measurements: 5-20% LED power (adjusted to keep fluorescence intensity between 2000 and 8000), 80% MST power, Laser-On time=30 s, Laser-Off time=25 s. The resulting data were analyzed by calculating the change in thermophoresis as a function of compound concentration and fitted by Equation 1, a one site binding model, in NanoTemper Tech's MST analysis software to yield the dissociation constant (Kd): […]

SMILES: C#CCN(CC(N)=O)C(=O)C1CCN1C(=O)C1CC(N)CN1C(=O)c1ccccc1C(=O)N1CCOCC1 (centres unmarked) [Compound 5]
- Kd: > 50 µM

SMILES: C#CCN(CC(N)=O)C(=O)C[C@H](Cc1c[nH]c2ccccc12)NC(=O)[C@@H]1C[C@H](NC(=O)Cn2c(=O)[nH]c3ccccc3c2=O)CN1 [Compound 9]
- Kd: > 50 µM
